Laboratory results from patent US11351178B2, “Selective HDAC6 inhibitors” (ITALFARMACO S.P.A., priority 2017, dated 2022).
At least one structure is not confirmed: it was looked up by name or label, or the drawing left a doubt.

System: PD-L1 expression in iDC (GMCSF-IL-4 stimulated monocytes)
Assay: Inhibition of the expression of PD-L1 in in vitro derived dendritic cells
Assay type: cell-based
Settings: human monocytes, GMCSF-IL-4, 5 days, FIG. 1
Experimental: FIG. 1: The inhibition of PD-L1 expression in iDC (GMCSF-IL-4 stimulated monocytes). Human monocytes were treated with HDAC6 inhibitors and stimulated with GMCSF-IL-4 for 5 days. After incubation, cells were collected and labelled with an anti PD-L1 antibody. Cells were then washed and fluorescence data were acquired using a flow cytometer (BD FACSVerse). Values on the graphs represent the mean of 3 experiment carried out on 3 different donors (n=3). The expression of PD-L1 is represented by the geometric mean of the fluorescence. *=P<0.05 determined by Student's t test.
To obtain in vitro derived DCs, human monocytes purified from PBMC, were treated for 5 days with GMCSF (50 ng/ml) and IL-4 (10 ng/ml) in the presence of two selective HDAC6 inhibitors described in this invention (compounds 10 and 19) and the HDAC inhibitor example 43 of WO 2012/106343. Control cells were treated with the inhibitor's vehicle. This procedure induces the formation of immature dendritic cells (iDCs) that express PD-L1 (Brown J A et al. J Immunol. 2003; 170:1257-66). After 5 days, iDCs were analyzed for the expression of the inhibitory marker […].

`O=C(NO)c1ccc(Cn2cccn2)cc1` [Example 43, reference compound] was tested, and the “PD-L1 expression in iDC” value was “not able to reduce PD-L1 expression”.
